# In all, about 33,000 sequences were measured (“E-score (-0.5 to 0.5)”: median about -0.0014, highest 2% from about 0.25 on). Some of the results follow.
# Target: T1, Cad1 (UniProt P24813)
# T1 sequence: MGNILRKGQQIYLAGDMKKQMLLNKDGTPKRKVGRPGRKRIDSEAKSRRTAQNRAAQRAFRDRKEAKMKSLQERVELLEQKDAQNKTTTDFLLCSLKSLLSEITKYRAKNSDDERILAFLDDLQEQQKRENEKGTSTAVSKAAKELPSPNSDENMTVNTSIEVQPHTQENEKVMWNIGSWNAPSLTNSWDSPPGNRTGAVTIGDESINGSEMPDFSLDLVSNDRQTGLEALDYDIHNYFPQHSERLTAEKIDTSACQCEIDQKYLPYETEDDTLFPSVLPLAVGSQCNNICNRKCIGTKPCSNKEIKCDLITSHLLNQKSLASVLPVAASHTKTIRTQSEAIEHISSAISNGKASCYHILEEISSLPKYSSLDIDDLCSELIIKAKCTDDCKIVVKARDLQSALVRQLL
# Experiment: PBM E-score (8-mer binding enrichment) (E-score (-0.5 to 0.5)); higher = stronger / more preferred TF binding
# Conditions: protein concentration: 100 nM; construct: GST-full length
# Procedure, shortened: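 Each ungapped eight-base word and its reverse complement, pooled, received an E-score from the Universal PBM Analysis Suite. Underlying scans, normalised with masliner, recorded fluorescent anti-GST bound to GST-tagged yeast transcription factors. These were applied at about 100-200 nM to universal all-10-mer Agilent arrays double-stranded by primer extension.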
row,Sequence,PBM E-score
1,CAAGCACC,-0.23
2,GACTCGAC,-0.231
3,CTTACCTA,0.0732
4,TCGATTAA,0.301
5,AGTGCGCC,-0.0701
6,CGGCTATA,0.0801
7,AACCCCTT,-0.188
8,CTAGCGCC,-0.00359
9,ACCACACG,0.049
10,GCCTGGTA,0.0275
11,CATGGAGG,-0.186
12,GGTCTAAC,-0.0553
13,CACTGTGA,-0.0187
14,CTCTTGAA,-0.138
15,CGACGGGA,0.11
16,AGTAGTAA,0.0579
17,AGATATCG,-0.00054
18,AGGGACCG,-0.352
19,ATGACTAG,-0.129
20,AGGAGCGA,-0.09
21,ATTGGTCA,0.103
22,ATCCGGCA,0.143

row,Sequence,PBM E-score
1,AATTAGAC,0.0936
2,AGTCGAGA,0.125
3,ATCATCGA,0.0835
4,TACGCAAA,-0.0262
5,ATAGAACG,0.174
6,CAACGATC,0.0755
7,TCAACGGA,0.0289
8,AAAGGCAG,0.0302
9,TAGTGGCA,-0.0829
10,AAGGACCT,-0.0949
11,CGGTTAAG,-0.0177
12,AGTGAATC,-0.0986
13,CCGATCTC,0.0279
14,CGGTACAG,0.0652
15,GCCAGTCA,-0.0356
16,ACTCAGTC,-0.0615
17,CGATGACG,-0.04
18,GCAAGAGC,0.00627
19,CACATCCG,0.0581
20,GAATCCCC,-0.252
21,AAAACATG,0.0118
22,CAGTTACA,-0.00475

# Copied from the results shown for reference:
row,Sequence,PBM E-score
15,GCCAGTCA,-0.0356
16,ACTCAGTC,-0.0615
17,CGATGACG,-0.04
18,GCAAGAGC,0.00627
19,CACATCCG,0.0581
20,GAATCCCC,-0.252
21,AAAACATG,0.0118

# Next part:

row,Sequence,PBM E-score
1,GCAGGGCA,0.0614
2,ACGCTCAG,-0.172
3,AGCATAAT,0.172
4,GCCCTCTA,-0.146
5,CTCTCGAC,-0.156
6,GCGATTCA,0.0123
7,AGCTGATC,-0.0102
8,CCTAGCTA,-0.00626
9,GCATACTA,0.0261
10,CCTACCAG,-0.334
11,TGAAATCA,0.101
12,CCGGGTCA,-0.183
13,CAGAAAGA,-0.047
14,CACATTTA,0.112
15,AGGTTGTG,0.0413
16,ATGGCCGC,-0.0765
17,CACGTAGA,-0.0666
18,CGTTTGGC,0.00859
19,ATACAACC,-0.0813
20,ACCGATGA,-0.0808
21,CCCATTCA,-0.0881
22,ACTTGAAA,0.0151

row,Sequence,PBM E-score
1,GAACCCCA,-0.0272
2,CGACTAAC,0.0712
3,GATCGCGC,0.118
4,TCCCTAGA,0.001
5,GGTCGGCA,-0.195
6,AAGAGGCT,-0.154
7,ACATCTTC,-0.124
8,CACGATAA,0.131
9,CATGCCGC,0.165
10,CAACCTGA,-0.0704
11,CGTTCATA,-0.0124
12,ACGGAAAC,-0.0435
13,ACCTGGCC,0.048
14,CATATACG,0.0636
15,ACCGTTAA,0.1
16,GAGTTTGA,0.062
17,ATTTATCG,0.098
18,CGAGTGCC,-0.174
19,AACAAGGA,0.0892
20,GGAGCTCC,-0.175
21,CCTGGGCG,-0.178
22,GGTTATTA,0.102

row,Sequence,PBM E-score
1,ATCACCCA,-0.0164
2,GTACGACA,0.0788
3,ACCTATTG,-0.131
4,GGAATCCC,-0.122
5,GACAGCGA,-0.0527
6,GGATCACC,-0.0708
7,CTTAATTC,0.177
8,CCGTGGCA,-0.0478
9,ACGAATAT,0.268
10,CGCTTAGC,-0.0176
11,GCGGCTCC,-0.315
12,AGCACCCG,-0.139
13,CGTGCAAG,-0.0319
14,GAATCCAC,-0.115
15,CATATCCG,0.137
16,AGCTCTAT,-0.003
17,AGGTAAAC,0.105
18,ATATAGCG,-0.0745
19,CTCCGTCC,-0.0903
20,AGCACCAT,-0.274
21,CAACGTGC,-0.0688

# Source: the supplement of paper PMC3334620
